The values that follow come from PMC10637790.

Results are given in words; binding and its absence hold for the method and conditions named. Binding seen in cells or lysates may run through a third protein. A yes stands for co-enrichment or nearness to the bait. Other partners may have been found. Tags and fused reporters may be left off the sequences shown.

The assay concerns the target T1, Flag-tagged chondroitin polymerizing factor (CHPF) expressed in glioma cells (UniProt Q8IZ52).
T1 sequence: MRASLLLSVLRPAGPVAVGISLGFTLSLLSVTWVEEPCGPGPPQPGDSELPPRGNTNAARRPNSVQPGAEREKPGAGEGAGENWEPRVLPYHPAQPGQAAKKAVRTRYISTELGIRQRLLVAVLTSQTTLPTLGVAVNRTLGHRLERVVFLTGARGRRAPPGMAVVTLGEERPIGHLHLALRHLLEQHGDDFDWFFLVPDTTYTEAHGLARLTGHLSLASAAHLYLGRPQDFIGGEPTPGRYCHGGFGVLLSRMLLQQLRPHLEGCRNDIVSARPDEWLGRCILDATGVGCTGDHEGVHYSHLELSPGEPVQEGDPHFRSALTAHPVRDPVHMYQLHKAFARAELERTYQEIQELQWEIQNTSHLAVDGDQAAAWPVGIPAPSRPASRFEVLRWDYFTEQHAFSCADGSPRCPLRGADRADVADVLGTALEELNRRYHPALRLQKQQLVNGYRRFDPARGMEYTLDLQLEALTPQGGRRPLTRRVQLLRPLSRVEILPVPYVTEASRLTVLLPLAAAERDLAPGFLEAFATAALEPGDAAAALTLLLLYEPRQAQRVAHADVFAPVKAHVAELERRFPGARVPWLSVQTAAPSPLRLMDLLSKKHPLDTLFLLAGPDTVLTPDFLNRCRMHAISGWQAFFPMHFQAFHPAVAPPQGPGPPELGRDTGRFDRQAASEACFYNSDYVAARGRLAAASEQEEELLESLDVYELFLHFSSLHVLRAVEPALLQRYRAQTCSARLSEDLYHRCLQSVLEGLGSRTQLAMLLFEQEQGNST
The experiment in a line: affinity purification with mass spectrometry; total protein from U251 cells immunoprecipitated with anti-Flag-CHPF or anti-IgG at 4 C for 12 h; SDS-PAGE bands analysed by LC-MS/MS.

B1: Mitotic arrest deficient 1-like 1 (MAD1L1), endogenous in glioma cells (protein, UniProt Q9Y6D9 1-718)
chain: MEDLGENTMVLSTLRSLNNFISQRVEGGSGLDISTSAPGSLQMQYQQSMQLEERAEQIRSKSHLIQVEREKMQMELSHKRARVELERAASTSARNYEREVDRNQELLTRIRQLQEREAGAEEKMQEQLERNRQCQQNLDAASKRLREKEDSLAQAGETINALKGRISELQWSVMDQEMRVKRLESEKQELQEQLDLQHKKCQEANQKIQELQASQEARADHEQQIKDLEQKLSLQEQDAAIVKNMKSELVRLPRLERELKQLREESAHLREMRETNGLLQEELEGLQRKLGRQEKMQETLVGLELENERLLAKLQSWERLDQTMGLSIRTPEDLSRFVVELQQRELALKDKNSAVTSSARGLEKARQQLQEELRQVSGQLLEERKKRETHEALARRLQKRVLLLTKERDGMRAILGSYDSELTPAEYSPQLTRRMREAEDMVQKVHSHSAEMEAQLSQALEELGGQKQRADMLEMELKMLKSQSSSAEQSFLFSREEADTLRLKVEELEGERSRLEEEKRMLEAQLERRALQGDYDQSRTKVLHMSLNPTSVARQRLREDHSQLQAECERLRGLLRAMERGGTVPADLEAAAASLPSSKEVAELKKQVESAELKNQRLKEVFQTKIQEFRKACYTLTGYQIDITTENQYRLTSLYAEHPGDCLIFKATSPSGSKMQLLETEFSHTVGELIEVHLRRQDSIPAFLSSLTLELFSRQTVA
On to B1, for which the binding entry is listed as “binds”.
